Measurements: publication PMC6788708
No constants are given. Whether binding was seen depends on the method and setting. For some assays here: In cells and extracts the contact can be indirect. Some entries that bind do so weakly or less than the wild type. Tags and fused reporters may be left off the sequences shown. Each block holds one binder with its values, some of them ahead of it.

Protein sequences, listed by entry. Tags and fused reporters are not part of them.
UniProt P73407: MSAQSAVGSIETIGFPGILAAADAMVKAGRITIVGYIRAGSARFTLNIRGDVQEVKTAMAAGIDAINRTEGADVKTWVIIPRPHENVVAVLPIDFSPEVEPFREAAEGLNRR

Tests used:
[1] = molecular target: T1, His6-tagged CcmK4 (Synechococcus elongatus PCC7942), control for homo-hexamers (Synechococcus elongatus PCC7942) (UniProt Q31RK2); assay: pull-down; Syn7942 CcmK3 and CcmK4 with His6 and FLAG tags co-expressed in E. coli (IPTG 200 uM or auto-induction); TALON purification; Coomassie SDS-PAGE and anti-FLAG western blot
T1 sequence: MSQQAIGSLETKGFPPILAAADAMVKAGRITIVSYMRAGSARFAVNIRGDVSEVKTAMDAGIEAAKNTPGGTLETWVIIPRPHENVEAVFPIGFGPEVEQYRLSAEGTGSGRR

[2] = molecular target: T2, CcmK4-His6 (Synechococcus elongatus PCC7942 CcmK4, C-ter His6 tag) (Synechococcus elongatus PCC7942) (UniProt Q31RK2); assay: as above
T2 sequence: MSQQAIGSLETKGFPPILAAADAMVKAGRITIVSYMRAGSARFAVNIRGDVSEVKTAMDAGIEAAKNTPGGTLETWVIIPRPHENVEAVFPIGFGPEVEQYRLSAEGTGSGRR

[3] = molecular target: T3, His6-CcmK4 (Synechococcus elongatus PCC7942 CcmK4, N-ter His6 tag) (Synechococcus elongatus PCC7942) (UniProt Q31RK2); assay: as above
T3 sequence: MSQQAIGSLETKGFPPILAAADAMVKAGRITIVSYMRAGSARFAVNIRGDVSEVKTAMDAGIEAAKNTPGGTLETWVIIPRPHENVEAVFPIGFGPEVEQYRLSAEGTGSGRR

[4] = molecular target: T4, CcmK1-His4 (Synechocystis sp. PCC6803 CcmK1, C-ter His4 tag) (Synechocystis sp. PCC6803) (UniProt P72760); assay: SEC; TALON-purified co-expressed samples; Beckman Ultraspherogel SEC2000, 20 mM Tris-HCl, 300 mM NaCl, pH 7, 1 mL/min; both purified
T4 sequence: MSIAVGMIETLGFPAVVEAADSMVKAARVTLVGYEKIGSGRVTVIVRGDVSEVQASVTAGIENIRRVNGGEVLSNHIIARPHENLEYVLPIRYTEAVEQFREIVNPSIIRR

[5] = molecular target: T5, CcmK2-His4 (Synechocystis sp. PCC6803 CcmK2, C-ter His4 tag) (Synechocystis sp. PCC6803) (UniProt P72761); assay: pull-down; four CcmK with His4, StrepTag, FLAG and HA tags co-expressed in E. coli BL21(DE3) (four-cassette plasmid, IPTG or auto-induction); TALON purification; Coomassie and western blots with streptactin-AP, anti-FLAG, anti-HA
T5 sequence: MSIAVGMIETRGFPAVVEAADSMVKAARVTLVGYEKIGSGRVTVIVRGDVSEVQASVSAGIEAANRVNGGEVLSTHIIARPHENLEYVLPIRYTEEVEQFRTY

[6] = molecular target: T4, CcmK1-His4 (Synechocystis sp. PCC6803 CcmK1, C-ter His4 tag) (Synechocystis sp. PCC6803); assay: pull-down; couples of His4- and FLAG-tagged Syn6803 CcmK co-expressed in E. coli BL21(DE3) (two-cassette pET26b plasmid, IPTG); soluble fraction on cobalt TALON resin in 20 mM NaPi, 300 mM NaCl, 10 mM imidazole, pH 8.0, eluted with 300 mM imidazole; Coomassie SDS-PAGE and anti-FLAG western blot of purified fractions
[7] = molecular target: T5, CcmK2-His4 (Synechocystis sp. PCC6803 CcmK2, C-ter His4 tag) (Synechocystis sp. PCC6803); assay: as above
[8] = molecular target: T4, CcmK1-His4 (Synechocystis sp. PCC6803 CcmK1, C-ter His4 tag) (Synechocystis sp. PCC6803); assay: pull-down; four CcmK with His4, StrepTag, FLAG and HA tags co-expressed in E. coli BL21(DE3) (four-cassette plasmid, IPTG or auto-induction); TALON purification; Coomassie and western blots with streptactin-AP, anti-FLAG, anti-HA
[9] = molecular target: His4-CcmK4 (Synechocystis sp. PCC6803 CcmK4, N-ter His4 tag) (Synechocystis sp. PCC6803) (UniProt P73407); assay: SEC; TALON-purified co-expressed samples; Beckman Ultraspherogel SEC2000, 20 mM Tris-HCl, 300 mM NaCl, pH 7, 1 mL/min; both purified
[10] = molecular target: CcmK4-His4 (Synechocystis sp. PCC6803 CcmK4, C-ter His4 tag) (Synechocystis sp. PCC6803) (UniProt P73407); assay: pull-down; four CcmK with His4, StrepTag, FLAG and HA tags co-expressed in E. coli BL21(DE3) (four-cassette plasmid, IPTG or auto-induction); TALON purification; Coomassie and western blots with streptactin-AP, anti-FLAG, anti-HA
[11] = molecular target: His4-CcmK4 (Synechocystis sp. PCC6803 CcmK4, N-ter His4 tag) (Synechocystis sp. PCC6803) (UniProt P73407); assay: as above
[12] = molecular target: His4-CcmK4 (Synechocystis sp. PCC6803 CcmK4, N-ter His4 tag) (Synechocystis sp. PCC6803) (UniProt P73407); assay: pull-down; purified His4-K4/K3-FLAG (7 uM) incubated overnight at room temperature at pH 5, 7 or 9 (50 mM NaPi or NaAcetate, 100 mM NaCl, 100 mM ammonium sulfate), with or without 14% PEG 3350; then bound to TALON resin, anti-FLAG western blot; both purified
[13] = molecular target: His4-CcmK4 (Synechocystis sp. PCC6803 CcmK4, N-ter His4 tag) (Synechocystis sp. PCC6803) (UniProt P73407); assay: pull-down; purified doubly tagged His4/FLAG homo- or hetero-hexamer (2 uM) in 50 mM NaPi pH 8.0, 100 mM NaCl, 0.15 mg/mL BSA, overnight at room temperature without or with untagged K1 or K4 (6 uM); then bound to TALON resin, anti-FLAG western blot; both purified
[14] = molecular target: His4-CcmK4 (Synechocystis sp. PCC6803 CcmK4, N-ter His4 tag) (Synechocystis sp. PCC6803) (UniProt P73407); assay: pull-down; couples of His4- and FLAG-tagged Syn6803 CcmK co-expressed in E. coli BL21(DE3) (two-cassette pET26b plasmid, IPTG); soluble fraction on cobalt TALON resin in 20 mM NaPi, 300 mM NaCl, 10 mM imidazole, pH 8.0, eluted with 300 mM imidazole; Coomassie SDS-PAGE and anti-FLAG western blot of purified fractions

binding [1]: binds
B1: FLAG-tagged CcmK4 (Synechococcus elongatus PCC7942), control for homo-hexamers (protein, UniProt Q31RK2 1-113)
chain: MSQQAIGSLETKGFPPILAAADAMVKAGRITIVSYMRAGSARFAVNIRGDVSEVKTAMDAGIEAAKNTPGGTLETWVIIPRPHENVEAVFPIGFGPEVEQYRLSAEGTGSGRR

binding [2]: binds | binding [3]: binds
B2: CcmK3-FLAG (Synechococcus elongatus PCC7942 CcmK3, C-ter FLAG tag) (protein, UniProt Q31RK3 1-102)
chain: MPIAVGTIQTLGFPPIIAAADAMVKAARVTITQYGLAESAQFFVSVRGPVSEVETAVEAGLKAVAETEGAELINYIVIPNPQENVETVMPIDFTAESEPFRS

binding [9]: binds | binding [10]: binds | binding [11]: binds | binding [12]: binds | binding [13]: binds | binding [14]: binds
B7: CcmK3-FLAG (Synechocystis sp. PCC6803 CcmK3, C-ter FLAG tag) (protein, UniProt P73406 1-103)
chain: MPQAVGVIQTLGFPSVLAAADAMLKGGRVTLVYYDLAERGNFVVAIRGPVSEVNLSMKMGLAAVNESVMGGEIVSHYIVPNPPENVLAVLPVEYTEKVARFRT

binding [11]: binds | binding [14]: binds weakly
B8: FLAG-CcmK3 (Synechocystis sp. PCC6803 CcmK3, N-ter FLAG tag) (protein, UniProt P73406 1-103)
chain: MPQAVGVIQTLGFPSVLAAADAMLKGGRVTLVYYDLAERGNFVVAIRGPVSEVNLSMKMGLAAVNESVMGGEIVSHYIVPNPPENVLAVLPVEYTEKVARFRT

More lines, now with the values behind:

B3: CcmK2-FLAG (Synechocystis sp. PCC6803 CcmK2, C-ter FLAG tag) (protein, UniProt P72761 1-103)
chain: MSIAVGMIETRGFPAVVEAADSMVKAARVTLVGYEKIGSGRVTVIVRGDVSEVQASVSAGIEAANRVNGGEVLSTHIIARPHENLEYVLPIRYTEEVEQFRTY
binding [4]: binds | binding [5]: binds | binding [6]: binds | binding [7]: binds

B4: CcmK2-StrepTag (Synechocystis sp. PCC6803 CcmK2, StrepTag) (protein, UniProt P72761 1-103)
chain: MSIAVGMIETRGFPAVVEAADSMVKAARVTLVGYEKIGSGRVTVIVRGDVSEVQASVSAGIEAANRVNGGEVLSTHIIARPHENLEYVLPIRYTEEVEQFRTY
binding [8]: binds | binding [5]: binds

B5: CcmK2-HA (Synechocystis sp. PCC6803 CcmK2, HA tag) (protein, UniProt P72761 1-103)
chain: MSIAVGMIETRGFPAVVEAADSMVKAARVTLVGYEKIGSGRVTVIVRGDVSEVQASVSAGIEAANRVNGGEVLSTHIIARPHENLEYVLPIRYTEEVEQFRTY
binding [5]: binds

B6: CcmK1-FLAG (Synechocystis sp. PCC6803 CcmK1, C-ter FLAG tag) (protein, UniProt P72760 1-111)
chain: MSIAVGMIETLGFPAVVEAADSMVKAARVTLVGYEKIGSGRVTVIVRGDVSEVQASVTAGIENIRRVNGGEVLSNHIIARPHENLEYVLPIRYTEAVEQFREIVNPSIIRR
binding [6]: binds | binding [7]: binds
